From article PMC11946258, “Self-Assembly, Antimicrobial Properties and Biodegradability of Ester-Functionalized Choline-Based Surface-Active Ionic Liquids” (Molecules, 2025)

Tested on: microorganisms derived from activated sludge
Assay: Aerobic biodegradability, CO2 Headspace Test (OECD 310)

## O=C([O-])c1ccccc1.[Na+] [NaBz, sodium benzoate, reference compound]
7 days
  Biodegradation (%) 7 Days: 80%
14 days
  Biodegradation (%) 14 Days: 91%
21 days
  Biodegradation (%) 21 Days: 93%
28 days, 95% confidence limits, four replicates
  Biodegradation (%) 28 Days: 98 ± 5.1%
